# Source: the supplement of paper PMC3334620
# Whole data set: some 33,000 sequences, median “E-score (-0.5 to 0.5)” near -0.016, cut for the highest 2% near 0.3. The list shows a part of the results.
# Target: T1, Yer184c (UniProt P39961)
# T1 sequence: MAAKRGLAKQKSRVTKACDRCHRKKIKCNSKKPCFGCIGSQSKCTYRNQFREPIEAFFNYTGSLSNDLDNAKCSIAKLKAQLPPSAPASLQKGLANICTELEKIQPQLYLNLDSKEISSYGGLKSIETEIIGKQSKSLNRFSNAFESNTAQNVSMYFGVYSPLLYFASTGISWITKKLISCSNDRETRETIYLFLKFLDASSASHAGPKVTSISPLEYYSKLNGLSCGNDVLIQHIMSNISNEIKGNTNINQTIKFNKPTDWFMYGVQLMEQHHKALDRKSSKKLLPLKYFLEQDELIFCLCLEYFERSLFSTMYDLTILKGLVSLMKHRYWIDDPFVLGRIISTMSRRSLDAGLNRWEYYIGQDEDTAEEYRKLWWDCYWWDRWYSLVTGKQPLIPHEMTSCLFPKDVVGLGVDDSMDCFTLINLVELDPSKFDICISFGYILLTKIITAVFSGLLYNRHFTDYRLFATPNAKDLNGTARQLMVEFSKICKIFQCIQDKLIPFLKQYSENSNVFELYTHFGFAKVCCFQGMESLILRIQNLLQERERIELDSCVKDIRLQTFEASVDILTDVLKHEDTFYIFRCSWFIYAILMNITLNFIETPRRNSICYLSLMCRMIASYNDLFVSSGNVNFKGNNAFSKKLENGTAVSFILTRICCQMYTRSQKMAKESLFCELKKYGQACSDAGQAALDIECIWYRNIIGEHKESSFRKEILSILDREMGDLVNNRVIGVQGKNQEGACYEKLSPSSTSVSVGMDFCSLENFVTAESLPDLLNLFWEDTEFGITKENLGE
# Assay: PBM E-score (8-mer binding enrichment) (E-score (-0.5 to 0.5)); higher = stronger / more preferred TF binding
# Conditions: protein concentration: 100 nM; construct: GST-full length
# Procedure, shortened: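 Universal all-10-mer Agilent arrays, fresh or stripped once, were converted to double-stranded form by primer extension. GST-tagged yeast transcription factors from PURExpress in vitro transcription/translation, full-length or DNA-binding domain only, were applied at about 100-200 nM and detected with fluorescent anti-GST. After masliner normalisation, the Universal PBM Analysis Suite scored each ungapped eight-base word together with its reverse complement by E-score.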
row,Sequence,PBM E-score
1,ATAATTAC,0.265
2,ACGATAAT,0.173
3,ACATAATG,0.123
4,CGCTATAG,-0.204
5,ATCCGCAG,0.123
6,GCACGTAA,-0.182
7,GGAAGCGA,-0.00432
8,GCTTGACC,-0.0737
9,ACCGGCTA,0.284
10,AAGGATAA,-0.064
11,AAAGGAGA,-0.197
12,AGAAACGC,-0.00284
13,ATGTCCGG,0.373
14,GGCAGGTA,-0.0757
15,CCAAGGTA,-0.0797
16,AAAGACTC,-0.158
17,GTGTTAAA,0.181
18,ATATTAGA,0.209
19,CCATGCCG,0.201
20,ATAGACTG,-0.0118
21,CGAAACTC,-0.0103
22,CCGGAACG,0.329
23,AAGGATCT,-0.168
24,AGCAGGAA,-0.00578
25,CTGTGATA,0.0316

row,Sequence,PBM E-score
1,ATCCGAAT,0.419
2,CGTCGTCA,-0.0193
3,TCGAACCA,-0.104
4,GCAAGAGA,-0.059
5,GCTCGTAC,-0.132
6,GGCGGTTA,0.00801
7,ACCGATTC,0.0082
8,GAATCATC,0.0812
9,CATCTGAA,0.173
10,AGTCAGGC,-0.0159
11,CTGTGGTC,-0.0663
12,AGCATTAA,-0.0361
13,ACGCGCGC,0.156
14,AAACCCCA,-0.21
15,CTATCAGA,-0.0202
16,ACCTCTAA,0.0296
17,AGGCTGGG,-0.309
18,AATACATG,0.00545
19,CGATATTC,0.155
20,ACGACCAG,-0.135
21,TGTATTAA,0.223
22,GAGAAGAA,0.176
23,TGCCAGAA,-0.0249
24,ACTGAGAG,-0.112
25,AGCGATTG,-0.049

row,Sequence,PBM E-score
1,ACTTCTAA,0.0436
2,GCCCGTCC,-0.209
3,TACTTGCA,-0.019
4,ACGGTACG,0.0949
5,AGTCGAAA,-0.143
6,CCTACATA,-0.133
7,GGGTCTGA,-0.0993
8,AGGTTCTG,-0.137
9,GTGGCATA,-0.125
10,GATACACA,-0.156
11,CATTTTGG,0.014
12,AGAAATAG,0.13
13,CTAAATCA,0.073
14,GTACCCGA,-0.0538
15,ACACTGCT,-0.244
16,CTCTCCGA,0.149
17,TACATGAA,-0.0446
18,CACCTCGG,0.201
19,ACTGGACT,-0.112
20,GGAACTCC,0.124
21,AGGACATA,0.089
22,GACATAAA,0.128
23,GTCCTGTA,0.00961
24,GTATCCTA,-0.0431
25,CACAGACG,-0.113

row,Sequence,PBM E-score
1,TAGTTTCA,0.0864
2,GTAAATAA,0.151
3,GACAGTCA,-0.0835
4,AGTAGCTC,-0.00154
5,ATATGCCG,0.234
6,ACTCGTGA,-0.19
7,CGTCCCGC,0.0669
8,AACGTTCG,0.0214
9,AAGATAGC,0.0451
10,AAGCTTTG,-0.00525
11,TCAGGTCA,0.0231
12,ATGTGAGC,-0.298
13,CCGGGTGA,0.258
14,AAGTGCGT,-0.109
15,CTCGGCAG,0.31
16,AAGCACCT,-0.0698
17,GCATAAAA,0.217
18,CACCTGCG,-0.113
19,ATATTGGC,-0.0624
20,ACGGAGCG,0.185
21,AACAGAAT,0.0416
22,GTATTCAA,0.177
23,GAAAGAGA,-0.0018
24,ACCGTCCC,-0.066
25,CTTCTAGA,-0.0806

row,Sequence,PBM E-score
1,ATCCGCTG,-0.00718
2,AACTTCCG,0.298
3,ACTTTAAT,0.0699
4,ATGCAGTA,0.0594
5,ATTAAGAC,0.0147
6,CCTGATTC,-0.0358
7,ATATCACG,-0.0542
8,CGCATAAA,0.129
9,GCACTCAA,-0.108
10,ACCCCGGA,0.142
11,TGTACACA,0.126
12,ACTACTTG,-0.145
13,ATTTCTAC,0.157
14,GCACGTGA,-0.0956
15,AACTTAAC,0.266
16,GAAGCACA,0.0735
17,CAATCCCG,0.195
18,ATACCGTG,0.0737
19,CCCCGGGG,0.281
20,ACCTGGGC,-0.377
21,GGTTGAAC,0.0281
22,CATTAACG,0.0762
23,AAGAATCA,0.122
24,ACACATGT,0.0127
25,GCGTGTCC,0.0203

row,Sequence,PBM E-score
1,CATTCAGA,0.0525
2,ATCCGCTA,0.0589
3,AAGGCAAT,0.00623
4,AAGCCCAG,-0.201
5,ATAGCCTG,-0.0249
6,GGTGTTGA,-0.226
7,CGCCCCGC,-0.017
8,ACACATCC,0.0937
9,GACTGCAA,-0.259
10,ACATAGAC,-0.073
11,AACGTACT,-0.00247
12,TCCAATAA,0.243
13,AAAAGGCA,0.11
14,AAAGTGCT,-0.0291
15,ATACTGGA,0.0367
16,AGCACCGA,0.221
17,AAAGGATT,-0.157
18,CAACCACA,0.123
19,CTGACAAA,0.156
20,ACCGGGGA,-0.0487
21,ACACTGCA,-0.172
22,ACGTTTGG,-0.142
23,AGCCAACC,-0.0201
24,AAGACGAC,-0.0814
25,TGAGATCA,0.0936

# 34 entries from above, with bars between the fields:
row | Sequence | PBM E-score
15 | AACTTAAC | 0.266
16 | GAAGCACA | 0.0735
17 | CAATCCCG | 0.195
18 | ATACCGTG | 0.0737
19 | CCCCGGGG | 0.281
20 | ACCTGGGC | -0.377
21 | GGTTGAAC | 0.0281
22 | CATTAACG | 0.0762
23 | AAGAATCA | 0.122
24 | ACACATGT | 0.0127
25 | GCGTGTCC | 0.0203
1 | CATTCAGA | 0.0525
2 | ATCCGCTA | 0.0589
3 | AAGGCAAT | 0.00623
4 | AAGCCCAG | -0.201
5 | ATAGCCTG | -0.0249
6 | GGTGTTGA | -0.226
7 | CGCCCCGC | -0.017
8 | ACACATCC | 0.0937
9 | GACTGCAA | -0.259
10 | ACATAGAC | -0.073
11 | AACGTACT | -0.00247
12 | TCCAATAA | 0.243
13 | AAAAGGCA | 0.11
14 | AAAGTGCT | -0.0291
15 | ATACTGGA | 0.0367
16 | AGCACCGA | 0.221
17 | AAAGGATT | -0.157
18 | CAACCACA | 0.123
19 | CTGACAAA | 0.156
20 | ACCGGGGA | -0.0487
21 | ACACTGCA | -0.172
22 | ACGTTTGG | -0.142
23 | AGCCAACC | -0.0201

# Going on with the list:

row,Sequence,PBM E-score
1,CTTCTTCC,-0.125
2,CTAGAGTC,-0.305
3,AGAGACTC,-0.0795
4,CGAGTGCG,0.0421
5,AAGGCATC,-0.0324
6,CTAAAGCA,0.126
7,ATGTATCG,0.0991
8,ATCAGGTG,0.00296
9,GTGTAAAC,0.126
10,ATTATCGC,0.208
11,CCAATTCC,0.229
12,AACTGTGG,0.051
13,CGGAAAAA,0.394
14,AGGCAGGC,-0.0599
15,AGGGTATG,-0.21
16,ATGGACAA,0.128
17,ACCAGAAC,0.0162
18,AGAAAGGA,-0.0781
19,ATTTAACA,0.0905
20,AATCAAAT,0.0737
21,CGCGTCAG,-0.254
22,GAGAGGAA,-0.116
